Molecules are shown by their SMILES. For some assays here: This list holds what a sample rich in hits left over. Records with an inconclusive call do not appear. The entries are a selection whose mix differs from that of the whole data set. Calls of active or inactive are those of the source. The call rests on the fitted dose curve; in most records, active means well fitted inhibition curve with a large enough effect; inconclusive means small, poorly fitted or top-dose-only effect; inactive means flat fitted curve, though single readings scatter.

The text below walks through data of PubChem BioAssay (NCATS).

Common to all, as to assay: qHTS profiling for inhibitors of Plasmodium falciparum proliferation (AID 504749); further: nearly all actives have a fitted effect of over 60% in size;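 on activity, negative = inhibition: 0% = DMSO vehicle and full inhibition = artemisinin control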
In one test the test system is C2A. Conditions: P. falciparum in erythrocytes, SYBR Green DNA, 72 h; at 28.7 µM (top of the series). Summed up:
(§1)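 SYBR Green fluorescence (ex 485 nm, em 535 nm) reports parasite DNA after 72 h compound exposure of infected red cells at 0.3% parasitemia, 2.5% hematocrit; signal normalized to 0.29 uM artemisinin and vehicle wells.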

For the next test, the system named is CP185. Conditions: P. falciparum in erythrocytes, SYBR Green DNA, 72 h; at 28.7 µM (top of the series). The method in brief:
as §1

Another test deals with CP191. Conditions: P. falciparum in erythrocytes, SYBR Green DNA, 72 h; at 28.7 µM (top of the series). The method in brief: as §1
The next test deals with CP192. Conditions: P. falciparum in erythrocytes, SYBR Green DNA, 72 h. Summed up: as §1
Another test has as its system CP217. Conditions: P. falciparum in erythrocytes, SYBR Green DNA, 72 h; at 28.7 µM (top of the series). Summed up:
as §1

The subject of another test is CP237. The settings on record: P. falciparum in erythrocytes, SYBR Green DNA, 72 h; at 28.7 µM (top of the series). Summed up:
as §1

In a further test the test system is CP238. Conditions: P. falciparum in erythrocytes, SYBR Green DNA, 72 h; at 28.7 µM (top of the series). Summed up:
as §1

Another test has as its system CP247. The settings on record: P. falciparum in erythrocytes, SYBR Green DNA, 72 h; at 28.7 µM (top of the series). Summed up:
as §1

In the next test the test system is CP250. Conditions: P. falciparum in erythrocytes, SYBR Green DNA, 72 h; at 28.7 µM (top of the series). The method in brief:
as §1

The subject of the next test is CP252. Conditions: P. falciparum in erythrocytes, SYBR Green DNA, 72 h; at 28.7 µM (top of the series). The method in brief:
as §1

In a further test the test system is CP256. Conditions: P. falciparum in erythrocytes, SYBR Green DNA, 72 h; at 28.7 µM (top of the series). Summed up: as §1
A further test has as its system CP260. The settings on record: P. falciparum in erythrocytes, SYBR Green DNA, 72 h; at 28.7 µM (top of the series). The method in brief: as §1
A further test concerns CP262. Conditions: P. falciparum in erythrocytes, SYBR Green DNA, 72 h; at 28.7 µM (top of the series). The method in brief:
as §1

The subject of the next test is CP265. Conditions: P. falciparum in erythrocytes, SYBR Green DNA, 72 h; at 28.7 µM (top of the series). Summed up: as §1
The next test has as its system CP266. Conditions: P. falciparum in erythrocytes, SYBR Green DNA, 72 h. The method in brief: as §1
The test system of the next test is CP286. The settings on record: P. falciparum in erythrocytes, SYBR Green DNA, 72 h; at 28.7 µM (top of the series). The method in brief: as §1
The next test relates to CP335. Conditions: P. falciparum in erythrocytes, SYBR Green DNA, 72 h; at 28.7 µM (top of the series). Summed up:
as §1

Another test has as its system DFO2036. The settings on record: P. falciparum in erythrocytes, SYBR Green DNA, 72 h; at 28.7 µM (top of the series). Summed up:
as §1

The test system of the next test is Dd2. The settings on record: P. falciparum in erythrocytes, SYBR Green DNA, 72 h; at 28.7 µM (top of the series). Summed up:
as §1

In another test the test system is ECU. Conditions: P. falciparum in erythrocytes, SYBR Green DNA, 72 h; at 28.7 µM (top of the series). The method in brief:
as §1
Potency means the concentration at half of the fitted maximal effect.

As for `CC(C)(C)c1ccc(O)cc1`, the activity, negative = inhibition in the test with C2A was inactive: -8.23%; in the test on CP185, inactive: 2.73%; with CP191, inactive: 1.2%; in the test with CP217, inactive: 8.43%; with CP237 it was inactive: -1.84%; in the test on CP238 it was inactive: 3.98%. Besides, the activity, negative = inhibition was inactive: -8.92% in the test on CP247; inactive: 5.4% with CP250; inactive: 2.48% in the test with CP252; inactive: 9.24% in the test on CP256; inactive: -6.32% in the test on CP260; inactive: 0% in the test on CP262. For the same compound, the activity, negative = inhibition in the test with CP265 was inactive: 2.54%; with CP286, inactive: -2.51%; with CP335 it was inactive: -0.0698%; with DFO2036, inactive: 1.87%; in the test with Dd2, inactive: 5.48%; in the test on ECU, inactive: 4.86%. Also, the results for the Potency in the test on CP192 and in the test on CP266 were active: 12 µM and active: 19 µM, respectively.
